Record: PubChem BioAssay AID1259254 (NCATS, 2017)

Test: 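Gene knock-downs that lead to re-replication, shown by excess G2 DNA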 (primary screen)
System: human HCT116 colorectal cancer cells
Reagents: single siRNA against human genes
Time to read-out: 3 days
Read-out: 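Imaged Hoechst DNA stain sorts each cell into a cycle phase by DNA amount; per plate, G2 fraction set to 0% for non-targeting and 100% for GMNN siRNA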
Direction: G2 robust z-score: higher = more G2 cells, more excess DNA replication
Call rule: 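Active siRNAs have a G2 robust z of 5 or more median absolute deviations over the median, which in these data means about 38% or higher of GMNN control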
Shown is a random part of about 59,000 deposited reagents. In the full data, about 1,550 (2.6%) are marked active. 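G2 share is only a proxy for re-replication; each gene was hit by three separate siRNAs, and active genes were retested.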 Reagents against one gene are numbered here. Not all columns of the deposit are shown. Not given: the amount of reagent.

no.	target	siRNA no.	G2 robust z-score	Outcome
1	CHD3 (chromodomain helicase DNA binding protein 3)	1	-0.756	inactive
2	CHD3 (chromodomain helicase DNA binding protein 3)	2	1.19	inactive
3	CHD3 (chromodomain helicase DNA binding protein 3)	3	1.27	inactive
4	CDC37 (cell division cycle 37, HSP90 cochaperone)	1	-0.317	inactive
5	CDC37 (cell division cycle 37, HSP90 cochaperone)	2	1.08	inactive
6	CDC37 (cell division cycle 37, HSP90 cochaperone)	3	1.14	inactive
7	HLA-DQA1 (major histocompatibility complex, class II, DQ alpha 1)	1	-1.04	inactive
8	HLA-DQA1 (major histocompatibility complex, class II, DQ alpha 1)	2	0.288	inactive
9	HLA-DQA1 (major histocompatibility complex, class II, DQ alpha 1)	3	-0.801	inactive
10	HLA-DQA1 (major histocompatibility complex, class II, DQ alpha 1)	4	0.97	inactive
11	HLA-DQA1 (major histocompatibility complex, class II, DQ alpha 1)	5	-0.384	inactive
12	HLA-DQA1 (major histocompatibility complex, class II, DQ alpha 1)	6	1.5	inactive
13	SYNGR3 (synaptogyrin 3)	1	0.456	inactive
14	SYNGR3 (synaptogyrin 3)	2	0.0808	inactive
15	SYNGR3 (synaptogyrin 3)	3	-0.0525	inactive

Next part; the last 2 above are carried over.
no.	target	siRNA no.	G2 robust z-score	Outcome
14	SYNGR3 (synaptogyrin 3)	2	0.0808	inactive
15	SYNGR3 (synaptogyrin 3)	3	-0.0525	inactive
16	DPY19L1 (dpy-19 like C-mannosyltransferase 1)	1	2.43	inactive
17	DPY19L1 (dpy-19 like C-mannosyltransferase 1)	2	1.23	inactive
18	DPY19L1 (dpy-19 like C-mannosyltransferase 1)	3	-0.361	inactive
19	LOC729296	1	-0.215	inactive
20	LOC729296	2	-0.342	inactive
21	LOC729296	3	1.49	inactive
22	RNF170 (ring finger protein 170)	1	-1.67	inactive
23	RNF170 (ring finger protein 170)	2	-0.433	inactive
24	RNF170 (ring finger protein 170)	3	-0.318	inactive
25	ZFY (zinc finger protein Y-linked)	1	0.94	inactive
26	ZFY (zinc finger protein Y-linked)	2	0.263	inactive
27	ZFY (zinc finger protein Y-linked)	3	0.491	inactive
28	MMP9 (matrix metallopeptidase 9)	1	1.99	inactive
29	MMP9 (matrix metallopeptidase 9)	2	0.0386	inactive
30	MMP9 (matrix metallopeptidase 9)	3	-0.926	inactive
